Values from PubChem BioAssay AID504791 (Drosophila RNAi Screening Center, 2011)

Test: 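Genes of the fly required for silencing by miRNA, siRNA or endo-siRNA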 (primary screen)
Cell system: Drosophila S2-derived reporter cells
Reagents: long dsRNA against Drosophila genes, about 150-250 ng dsRNA per well (siRNA assay); about 80-120 ng (miRNA assay)
Duration: about 5 days (siRNA assay); about 4 days (miRNA assay)
Challenge: copper sulfate induction of reporters: 25 µM (siRNA assay); 200 mM stated (miRNA assay), 1-2 days before reading
Measured: 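Per-well ratio of Renilla over firefly light, expressed relative to that plate's average ratio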
Units: stable assay Renilla, run 1 in luminescence; stable assay firefly, run 1 in luminescence
Active means: 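First-pass picks had plate-scaled ratios over 1.5 for the siRNA assay, over 1.6 for the miRNA assay, or under 0.6; two distinct dsRNAs had to score alike on retest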
The deposit covers about 23,000 reagents; shown is an unselected part of those that have a named target and a result. In the full data, 199 (0.86%) were called active. 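Plate-scaled ratios behind the calls are not deposited; printed light signals are raw; many rows marked increased or decreased are still called inactive.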 Reagents against one gene are numbered here. Names joined by + are all predicted targets of the reagent. The record does not give: the direction of the score.

target gene | dsRNA no. | miRNA reporter change | stable assay Renilla, run 1 | stable assay firefly, run 1 | activity call
Prp19 (Pre-RNA processing factor 19) | 1 | – | 5387 | 2.34e5 | inactive
Prp19 (Pre-RNA processing factor 19) | 2 | reporter ratio lowered past the hit cutoff | – | – | inactive
PNPase (Polynucleotide phosphorylase) | 1 | – | 7720 | 6.14e5 | inactive
CG3726 | 1 | – | 4547 | 2.98e5 | inactive
CG3726 | 2 | – | 4980 | 3.07e5 | inactive
Obp18a (Odorant-binding protein 18a) | 1 | – | 5671 | 3.66e5 | inactive
CG42374 + Mettl5 | 1 | – | 9719 | 3.28e5 | inactive
CG1941 | 1 | – | 6007 | 2.89e5 | inactive
CG7634 | 1 | – | 8253 | 5.56e5 | inactive
betaNACtes3 (Nascent-associated complex beta-subunit-like, testis 3) | 1 | – | 4783 | 3.68e5 | inactive
CG6865 | 1 | – | 8746 | 4.61e5 | inactive
Cpr65Ea (Cuticular protein 65Ea) | 1 | – | 6706 | 3.50e5 | inactive
CG31807 | 1 | – | 5788 | 4.47e5 | inactive
CheB93b (Chemosensory protein B 93b) | 1 | – | 9854 | 5.38e5 | inactive
CG6614 | 1 | – | 5767 | 3.10e5 | inactive
key (kenny) | 1 | – | 70543 | 2.23e6 | inactive
CG11927 | 1 | – | 10321 | 3.98e5 | inactive
nopo (no poles) | 1 | – | 9212 | 2.66e5 | inactive
CYTB (retired record) | 1 | – | 5699 | 4.12e5 | inactive
CG13044 | 1 | – | 7451 | 4.28e5 | inactive
Frq1 (Frequenin 1) | 1 | – | 4703 | 3.48e5 | inactive
Octbeta1R (Octopamine beta1 receptor) | 1 | – | 7347 | 4.97e5 | inactive
CG31517 | 1 | – | 4072 | 3.81e5 | inactive
Tcs6 + PIG-P | 1 | – | 4647 | 3.52e5 | inactive
Tcs6 + PIG-P | 2 | – | 6935 | 3.66e5 | inactive
lectin-28C | 1 | – | 8138 | 4.22e5 | inactive
CG33272 | 1 | – | 4551 | 3.38e5 | inactive
fj (four-jointed) | 1 | – | 6104 | 3.26e5 | inactive
CG31867 | 1 | – | 7052 | 4.03e5 | inactive
ImpE2 (Ecdysone-inducible gene E2) | 1 | – | 7162 | 4.66e5 | inactive
CG12075 | 1 | – | 8535 | 3.83e5 | inactive
CG31368 | 1 | – | 8714 | 5.67e5 | inactive
CG31368 | 2 | – | 9305 | 4.86e5 | inactive
CG17267 | 1 | – | 6962 | 2.93e5 | inactive
Gem4b + Gem4c | 1 | – | 6236 | 3.53e5 | inactive
Lip4 (Lipase 4) | 1 | – | 7751 | 4.06e5 | inactive
nab | 1 | – | 6727 | 3.57e5 | inactive
nab | 2 | – | 6270 | 3.79e5 | inactive
CG5382 | 1 | – | 10292 | 4.31e5 | inactive
CG3216 | 1 | – | 7155 | 4.59e5 | inactive
CG8314 | 1 | – | 7829 | 2.96e5 | inactive
CG18528 | 1 | – | 7954 | 4.65e5 | inactive
pros (prospero) | 1 | – | 5739 | 5.97e5 | inactive
pros (prospero) | 2 | – | 8150 | 4.80e5 | inactive
pros (prospero) | 3 | – | 2868 | 2.19e5 | inactive
Ns4 (Nucleostemin 4) | 1 | – | 16843 | 6.04e5 | inactive
Ir94h (Ionotropic receptor 94h) | 1 | – | 6132 | 2.47e5 | inactive
Cdlc2 (Cytoplasmic dynein light chain 2) | 1 | – | 1.23e5 | 99096 | inactive
CG18404 | 1 | – | 6120 | 3.84e5 | inactive
CG33181 | 1 | – | 5411 | 3.33e5 | inactive
CG33181 | 2 | – | 8938 | 5.57e5 | inactive
CG9849 | 1 | – | 6610 | 4.08e5 | inactive
Smurf (SMAD specific E3 ubiquitin protein ligase) | 1 | – | 5163 | 2.47e5 | inactive
CG4730 | 1 | – | 6526 | 3.26e5 | inactive
CG14230 | 1 | – | 8311 | 5.06e5 | inactive
Lamtor4 (Late endosomal/lysosomal adaptor, MAPK and MTOR activator 4) | 1 | – | 8025 | 4.78e5 | inactive
CG13667 | 1 | – | 7975 | 3.99e5 | inactive
